Measured values from paper PMC11677236.
Results are given in words; binding and its absence hold for the method and conditions named. In cells and extracts the contact can be indirect. Some results given as binding are weak or reduced against the parent protein; the word gives no strength.

Protein sequences, listed by entry. Tags and fused reporters are not part of them.
UniProt Q16665: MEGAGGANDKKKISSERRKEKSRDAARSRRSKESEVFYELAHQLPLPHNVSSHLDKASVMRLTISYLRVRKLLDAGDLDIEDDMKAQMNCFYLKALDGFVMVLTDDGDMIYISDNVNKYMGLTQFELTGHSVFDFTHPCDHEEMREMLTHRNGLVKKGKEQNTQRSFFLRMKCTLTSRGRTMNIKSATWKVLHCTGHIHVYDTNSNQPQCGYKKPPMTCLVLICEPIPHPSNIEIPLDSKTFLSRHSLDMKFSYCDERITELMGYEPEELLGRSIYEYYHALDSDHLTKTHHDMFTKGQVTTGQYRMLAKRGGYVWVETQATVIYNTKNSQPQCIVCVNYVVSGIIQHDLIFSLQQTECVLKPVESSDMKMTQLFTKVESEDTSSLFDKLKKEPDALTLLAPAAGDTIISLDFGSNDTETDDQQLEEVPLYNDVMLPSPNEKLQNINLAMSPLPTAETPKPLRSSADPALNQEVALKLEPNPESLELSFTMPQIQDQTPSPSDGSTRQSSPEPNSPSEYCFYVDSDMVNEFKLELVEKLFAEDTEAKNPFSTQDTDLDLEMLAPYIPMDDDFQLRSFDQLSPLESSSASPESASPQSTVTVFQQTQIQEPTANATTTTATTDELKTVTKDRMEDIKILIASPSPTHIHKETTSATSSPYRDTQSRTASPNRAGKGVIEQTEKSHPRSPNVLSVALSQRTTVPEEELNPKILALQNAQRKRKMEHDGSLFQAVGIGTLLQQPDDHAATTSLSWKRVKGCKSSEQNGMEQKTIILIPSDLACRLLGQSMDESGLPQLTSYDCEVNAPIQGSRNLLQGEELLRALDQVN
UniProt P14618: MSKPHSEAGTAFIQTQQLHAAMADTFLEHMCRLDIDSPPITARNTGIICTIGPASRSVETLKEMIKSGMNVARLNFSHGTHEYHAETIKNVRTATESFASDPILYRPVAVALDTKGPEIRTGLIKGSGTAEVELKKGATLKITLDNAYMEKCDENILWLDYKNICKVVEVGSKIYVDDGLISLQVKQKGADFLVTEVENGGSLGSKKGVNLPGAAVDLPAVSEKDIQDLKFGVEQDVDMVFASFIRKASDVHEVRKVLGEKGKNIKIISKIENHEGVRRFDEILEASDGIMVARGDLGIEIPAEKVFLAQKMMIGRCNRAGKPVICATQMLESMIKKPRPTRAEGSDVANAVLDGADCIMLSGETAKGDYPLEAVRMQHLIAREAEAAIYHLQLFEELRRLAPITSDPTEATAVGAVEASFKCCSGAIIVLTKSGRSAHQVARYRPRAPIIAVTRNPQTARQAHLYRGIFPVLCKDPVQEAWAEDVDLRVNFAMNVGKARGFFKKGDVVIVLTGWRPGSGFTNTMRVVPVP

Legend:
HIF-1α, exogenous = HIF-1α, exogenous (UniProt Q16665); assay: co-IP; HEK-293T cells co-transfected with tagged constructs; lysed supernatant incubated with Tag-conjugated beads; western blot; for PKM2/HIF-1α with rising amounts of TIPE
[1] = molecular target: T1, TIPE (TNFAIP8, tumor necrosis factor alpha-induced protein 8), endogenous (human (endogenous in A375 and G361)) (UniProt O95379); assay: proximity ligation; Duolink In Situ PLA kit on endogenous proteins in melanoma cells (G361, A375); for PKM2/HIF-1α with TIPE interference (A375) or TIPE overexpression (G361)
T1 sequence: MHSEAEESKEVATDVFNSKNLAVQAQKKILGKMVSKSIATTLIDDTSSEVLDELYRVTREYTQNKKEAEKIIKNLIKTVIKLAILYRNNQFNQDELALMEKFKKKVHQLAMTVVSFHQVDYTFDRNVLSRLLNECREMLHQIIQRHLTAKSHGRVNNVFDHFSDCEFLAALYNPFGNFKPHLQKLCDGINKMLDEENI

[2] = molecular target: HIF-1α, endogenous (human (endogenous in A375 and G361)) (UniProt Q16665); assay: as above
[3] = molecular target: T1, TIPE (TNFAIP8, tumor necrosis factor alpha-induced protein 8), endogenous (human (endogenous in A375 and G361)); assay: co-IP; IP and western blot of the endogenous proteins in A375 cells

binding (HIF-1α, exogenous)	binding [2]	Substance	binding [1]	binding [3]
binds		Flag-tagged PKM2 (from UniProt P14618 1-531) (enzyme)		
	binds	pyruvate kinase M2 (PKM2), endogenous (from UniProt P14618 1-531) (enzyme)	binds	binds
